Results are given in words; binding and its absence hold for the method and conditions named. Some binding calls cover weakened binding; strength is not graded here.
Biological target: T1, recombinant Plasmodium falciparum subtilisin-like protease 1 (rPfSUB1), p54/p47 protease species (Plasmodium falciparum) (UniProt O61142)
T1 sequence: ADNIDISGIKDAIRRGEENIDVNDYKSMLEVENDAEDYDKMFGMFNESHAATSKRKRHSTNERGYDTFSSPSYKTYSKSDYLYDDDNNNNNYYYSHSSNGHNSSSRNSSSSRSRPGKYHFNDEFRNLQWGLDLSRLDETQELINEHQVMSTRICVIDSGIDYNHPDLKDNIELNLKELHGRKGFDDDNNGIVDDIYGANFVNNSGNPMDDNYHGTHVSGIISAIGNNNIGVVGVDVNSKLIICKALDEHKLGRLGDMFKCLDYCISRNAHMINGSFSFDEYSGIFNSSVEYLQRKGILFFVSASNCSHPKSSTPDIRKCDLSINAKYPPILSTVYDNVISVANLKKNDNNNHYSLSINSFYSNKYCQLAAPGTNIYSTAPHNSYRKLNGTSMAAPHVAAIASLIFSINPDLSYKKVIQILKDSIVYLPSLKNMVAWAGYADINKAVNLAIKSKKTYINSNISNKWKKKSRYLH
Assay: co-purification (Blue Sepharose and Ni-NTA chromatography, SDS-PAGE); recombinant SUB1 secreted by baculovirus-infected insect cells, purified from culture supernatant on Blue Sepharose CL-6B and Ni-NTA agarose; prodomain seen beside the protease species on Coomassie-stained gels of the purified protein

B1: PfSUB1 prodomain (PD) released by autocatalytic cleavage of rPfSUB1 (domain or fragment)
chain: KEVRSEENGKIQDDAKKIVSELRFLEKVEDVIEKSNIGGNEVDADENSFNPDTEVPIEEIEEIKMRELKDVKEEKNKNDNHNNNNNNNNISSSSSSSSNTFGEEKEEVSKKKKKLRLIVSENHATTPSFFQESLLEPDVLSFLESKGNLSNLKNINSMIIELKEDTTDDELISYIKILEEKGALIESDKLVS
binding: binds

— publication PMC3378952, “Plasmodium subtilisin-like protease 1 (SUB1): Insights into the active-site structure, specificity and function of a pan-malaria drug target” (International Journal for Parasitology, 2012)
